Measured values taken from the supplement of paper PMC12889115.
The other results are listed elsewhere or left out. These are raw signals, not scaled to a control.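 In the initial screen, polymyxin B was used at a concentration that permeabilizes Salmonella's outer membrane but not its inner membrane. Maximum growth was set by DMSO wells with or without polymyxin B. Since plates varied, data were ranked per plate, and compounds giving the lowest OD600 advanced as hits.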

Test system: Salmonella enterica serovar Typhimurium SL1344
Test: bacterial growth OD600 after 18 h with compound and polymyxin B; higher = more bacterial growth (less inhibition)
Settings: 50 µM, Mueller-Hinton broth

Row | SMILES | bacterial growth OD600 (polymyxin B 0.75 µg/mL) | bacterial growth OD600 (polymyxin B 1 µg/mL)
1 | COc1cc(CN2CCOc3ccc(CN4CCc5sccc5C4)cc3C2)cc2c1OCO2 | 0.002 | –
2 | COc1cccc(CC2(CO)CCN(Cc3cc(F)ccc3-n3nc(C)cc3C)CC2)c1 | – | 0.873
3 | CCO[C@H]1[C@H](NC(=O)c2ccco2)c2ccccc2C12CCN(C(=O)Cc1nonc1C)CC2 | 0.891 | –
4 | CCc1ocnc1C(=O)NCc1cccnc1N1CCN(C)CC1 | 0.855 | –
5 | CN(Cc1ccccc1)c1ncccc1CNC(=O)C1CC(=O)N(C2CC2)C1 (stereo not given) | – | 0.843
6 | O=C(c1ccc(Cl)cc1)N1CCC2(CCCN(Cc3cccnc3)C2=O)C1 (stereo not given) | – | 0.908
7 | O=C1CCC(CCNCc2cc3c(cc2Cl)OCO3)N1CC1C2CC3CC(C2)CC1C3 (stereo not given) | 0.002 | –
8 | CCOC(=O)C1(CCCc2ccccc2)CCCN(C(=O)CCN2CCCO2)C1 (stereo not given) | – | 1.08
9 | Cc1ccc(CCC(=O)N2CCC(n3nccc3NC(=O)C3CC3)CC2)cc1 | – | 1.08
10 | Cc1ccccc1CCC1CCCN(C(=O)CCc2cnccn2)C1 (stereo not given) | – | 1.03
11 | COCCC(=O)N1CCC(Oc2ccc(C(=O)NC3CCCC3)cc2Cl)CC1 | – | 1.19
12 | CCOC(=O)C1(CC2CC2)CCN(C(=O)c2ccc3nc(C)[nH]c3c2)CC1 | – | 0.815
13 | Cc1ccc(S(=O)(=O)NCc2cccnc2Oc2ccccc2)s1 | – | 0.85
14 | COC(=O)C1CCCCN1C(=O)c1c(OC)cc(=O)n2c1CCN(Cc1ccccc1Cl)CC2 (stereo not given) | 0.828 | –
15 | Cc1nc(N2CCCC(C(=O)NCCC(C)C)C2)nc2cc(S(C)(=O)=O)ccc12 (stereo not given) | 0.79 | –
16 | CCCCS(=O)(=O)N1CCC(C2CCN(Cc3cccnc3)CC2)C1 (stereo not given) | 0.877 | –
17 | O=C(NC1CC1)C1CCCN(C2CCN(C3CCCCCC3)CC2)C1 (stereo not given) | 0.835 | –
18 | COc1ccc(CCN2CC(NC(=O)c3ccccc3C)CC2=O)cc1 (stereo not given) | – | 0.893
19 | COc1ccc(OCc2cc(C(=O)NC3CCOC(C)(C)C3)n[nH]2)c(Cl)c1 (stereo not given) | 0.835 | –
20 | COc1cc(NC(=O)CCC2CCCN(Cc3cnc(SC)nc3)C2)cc(OC)c1 (stereo not given) | – | 0.962
21 | CCn1cc(CN2CCC(C(=O)Nc3cccc(-c4nnc(C)s4)c3)CC2)c(C)n1 | – | 1.04
22 | COc1cccc(-c2cnnc(NCc3cc(C(C)(C)C)[nH]n3)n2)c1 | 0.588 | –
23 | CCC(=O)C1CCCN(C(=O)C2CCCN(c3nc(C)c4ccc(OC)cc4n3)C2)C1 (stereo not given) | 0.017 | –
24 | O=C(CCC1CCCC1)N1CCC(C2(c3ccccn3)NC(=O)N(CCc3cccs3)C2=O)CC1 (stereo not given) | 0.032 | –
25 | CCN(CCOC)c1ccc(-c2nc(Cc3ccccc3)no2)cn1 | 0.589 | –
26 | COc1ccc(C(=O)N2CCN(C(=O)CCC3(Cc4ccc(Cl)cc4)CCC(=O)N3)CC2)cc1 (stereo not given) | 0.851 | –
27 | Cc1nc(N2CCC(C(=O)NCCc3ccccc3)CC2)nc2ccc(C(C)C)cc12 | 0.812 | –
28 | CN(C(=O)c1ccn(C)n1)C(Cc1ccccc1)C1CCN(C(=O)c2cc3ccccc3oc2=O)CC1 (stereo not given) | 0.968 | –
29 | COC(=O)CCC(=O)N1CCC(Oc2ccc(C(=O)NC3CCCC3)cc2Cl)CC1 | – | 1.13
30 | CCOC(=O)C1(CCCc2ccccc2)CCCN(C(=O)C2=NNC(=O)CC2)C1 (stereo not given) | – | 1.26

Record cards, as listed above. Values in the order: bacterial growth OD600 (polymyxin B 0.75 µg/mL) | bacterial growth OD600 (polymyxin B 1 µg/mL)
CCc1ocnc1C(=O)NCc1cccnc1N1CCN(C)CC1 is listed as 0.855 | –
COc1ccc(OCc2cc(C(=O)NC3CCOC(C)(C)C3)n[nH]2)c(Cl)c1 (stereo not given) is listed as 0.835 | –
